# Source: the supplement of paper PMC10849652
# Amino acid sequences for entries named in this document (tags omitted). A change or cut given only in a name is not applied to a line headed by its entry.
# UniProt Q9P2D6: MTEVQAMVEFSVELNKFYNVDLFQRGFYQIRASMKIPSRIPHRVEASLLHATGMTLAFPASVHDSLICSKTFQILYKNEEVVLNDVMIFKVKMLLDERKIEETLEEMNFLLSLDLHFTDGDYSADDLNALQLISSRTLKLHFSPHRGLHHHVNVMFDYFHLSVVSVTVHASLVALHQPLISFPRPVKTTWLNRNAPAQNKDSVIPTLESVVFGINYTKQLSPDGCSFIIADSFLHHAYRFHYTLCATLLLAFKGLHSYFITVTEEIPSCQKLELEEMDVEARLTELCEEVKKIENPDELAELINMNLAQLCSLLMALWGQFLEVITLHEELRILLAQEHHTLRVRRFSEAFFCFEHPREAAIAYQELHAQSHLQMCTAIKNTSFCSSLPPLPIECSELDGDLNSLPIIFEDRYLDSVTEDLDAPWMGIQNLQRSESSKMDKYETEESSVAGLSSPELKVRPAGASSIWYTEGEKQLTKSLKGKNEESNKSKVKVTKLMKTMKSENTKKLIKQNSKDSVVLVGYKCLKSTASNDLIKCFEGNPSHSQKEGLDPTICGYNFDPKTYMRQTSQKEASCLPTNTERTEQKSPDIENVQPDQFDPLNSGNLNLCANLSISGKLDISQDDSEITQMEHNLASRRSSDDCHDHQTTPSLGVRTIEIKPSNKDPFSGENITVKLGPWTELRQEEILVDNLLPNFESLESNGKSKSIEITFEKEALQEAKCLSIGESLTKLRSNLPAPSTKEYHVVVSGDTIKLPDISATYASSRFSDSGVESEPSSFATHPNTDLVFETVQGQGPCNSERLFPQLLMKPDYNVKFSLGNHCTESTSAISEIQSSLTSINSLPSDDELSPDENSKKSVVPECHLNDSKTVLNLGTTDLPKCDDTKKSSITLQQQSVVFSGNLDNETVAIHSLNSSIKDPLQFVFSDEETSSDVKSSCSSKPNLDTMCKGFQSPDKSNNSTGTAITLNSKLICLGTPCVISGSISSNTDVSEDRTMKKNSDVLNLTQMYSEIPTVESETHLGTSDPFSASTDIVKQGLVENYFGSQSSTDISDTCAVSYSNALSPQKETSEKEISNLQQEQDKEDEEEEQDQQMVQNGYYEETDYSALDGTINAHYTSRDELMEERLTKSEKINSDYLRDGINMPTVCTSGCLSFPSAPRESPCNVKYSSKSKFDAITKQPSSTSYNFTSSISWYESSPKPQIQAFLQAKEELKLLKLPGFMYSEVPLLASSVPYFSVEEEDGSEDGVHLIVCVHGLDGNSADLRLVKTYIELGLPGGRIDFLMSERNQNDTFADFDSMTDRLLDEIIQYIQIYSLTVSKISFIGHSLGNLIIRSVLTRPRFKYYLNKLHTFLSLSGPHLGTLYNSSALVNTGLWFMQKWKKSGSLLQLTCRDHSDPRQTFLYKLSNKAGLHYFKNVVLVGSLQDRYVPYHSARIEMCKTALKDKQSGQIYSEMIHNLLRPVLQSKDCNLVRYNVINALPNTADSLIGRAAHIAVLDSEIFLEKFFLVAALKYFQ
# UniProt Q9H8W3: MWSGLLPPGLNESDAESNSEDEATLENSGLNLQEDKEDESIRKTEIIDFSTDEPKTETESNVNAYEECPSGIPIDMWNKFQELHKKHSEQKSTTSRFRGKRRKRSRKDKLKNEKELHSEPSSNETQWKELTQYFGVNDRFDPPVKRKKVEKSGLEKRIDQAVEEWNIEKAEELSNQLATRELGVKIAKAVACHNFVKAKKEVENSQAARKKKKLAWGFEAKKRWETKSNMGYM
# UniProt Q96RI0: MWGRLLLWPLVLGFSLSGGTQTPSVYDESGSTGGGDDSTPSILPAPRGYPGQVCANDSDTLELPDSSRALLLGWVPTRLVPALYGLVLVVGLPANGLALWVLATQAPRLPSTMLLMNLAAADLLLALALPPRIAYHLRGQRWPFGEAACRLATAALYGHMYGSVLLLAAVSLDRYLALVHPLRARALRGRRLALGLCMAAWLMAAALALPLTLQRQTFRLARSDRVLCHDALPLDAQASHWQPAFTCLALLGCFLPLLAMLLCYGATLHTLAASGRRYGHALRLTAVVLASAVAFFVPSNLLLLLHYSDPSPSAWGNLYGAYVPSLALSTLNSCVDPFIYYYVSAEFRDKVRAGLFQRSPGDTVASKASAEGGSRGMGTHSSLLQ
# UniProt Q15910, whole entry, looked up: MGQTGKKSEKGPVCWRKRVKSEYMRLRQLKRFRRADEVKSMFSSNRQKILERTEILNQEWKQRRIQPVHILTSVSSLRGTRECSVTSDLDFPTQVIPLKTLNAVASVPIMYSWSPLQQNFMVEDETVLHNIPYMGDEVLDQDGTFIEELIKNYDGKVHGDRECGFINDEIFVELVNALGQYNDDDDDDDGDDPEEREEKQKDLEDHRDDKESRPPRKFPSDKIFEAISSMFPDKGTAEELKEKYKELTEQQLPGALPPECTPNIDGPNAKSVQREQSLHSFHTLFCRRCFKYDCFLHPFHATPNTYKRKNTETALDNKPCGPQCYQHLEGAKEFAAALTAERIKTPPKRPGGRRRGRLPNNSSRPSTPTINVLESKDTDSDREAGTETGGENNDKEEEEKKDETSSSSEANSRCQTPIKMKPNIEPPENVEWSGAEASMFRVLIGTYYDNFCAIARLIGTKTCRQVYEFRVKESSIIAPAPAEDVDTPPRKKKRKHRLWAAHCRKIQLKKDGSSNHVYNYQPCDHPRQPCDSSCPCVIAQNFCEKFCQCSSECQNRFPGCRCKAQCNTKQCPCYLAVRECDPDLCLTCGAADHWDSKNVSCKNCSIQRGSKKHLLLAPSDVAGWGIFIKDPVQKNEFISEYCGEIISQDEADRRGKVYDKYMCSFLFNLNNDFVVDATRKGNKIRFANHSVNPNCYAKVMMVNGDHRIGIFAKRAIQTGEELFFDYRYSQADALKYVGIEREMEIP
# UniProt O60447: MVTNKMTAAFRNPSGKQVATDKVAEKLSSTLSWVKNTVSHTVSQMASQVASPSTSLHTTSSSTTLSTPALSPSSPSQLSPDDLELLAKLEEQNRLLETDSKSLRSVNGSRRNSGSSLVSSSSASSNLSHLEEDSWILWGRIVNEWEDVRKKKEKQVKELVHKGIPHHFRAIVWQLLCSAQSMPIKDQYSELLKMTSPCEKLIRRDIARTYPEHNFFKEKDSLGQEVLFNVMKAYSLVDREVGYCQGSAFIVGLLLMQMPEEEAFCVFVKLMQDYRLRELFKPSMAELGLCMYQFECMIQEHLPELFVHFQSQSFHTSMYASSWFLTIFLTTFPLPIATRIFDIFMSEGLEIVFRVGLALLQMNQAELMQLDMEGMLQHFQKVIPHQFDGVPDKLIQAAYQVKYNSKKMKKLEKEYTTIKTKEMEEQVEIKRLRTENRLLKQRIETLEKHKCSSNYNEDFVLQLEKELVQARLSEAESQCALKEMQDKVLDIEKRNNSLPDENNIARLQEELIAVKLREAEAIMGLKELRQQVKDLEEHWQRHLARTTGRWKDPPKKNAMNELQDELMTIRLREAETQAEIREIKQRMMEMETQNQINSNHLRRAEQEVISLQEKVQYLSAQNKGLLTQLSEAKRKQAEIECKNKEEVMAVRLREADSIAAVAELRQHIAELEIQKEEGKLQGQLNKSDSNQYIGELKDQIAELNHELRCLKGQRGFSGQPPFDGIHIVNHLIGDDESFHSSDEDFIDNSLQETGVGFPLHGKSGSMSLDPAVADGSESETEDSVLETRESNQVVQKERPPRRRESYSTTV
# UniProt Q5VUB5: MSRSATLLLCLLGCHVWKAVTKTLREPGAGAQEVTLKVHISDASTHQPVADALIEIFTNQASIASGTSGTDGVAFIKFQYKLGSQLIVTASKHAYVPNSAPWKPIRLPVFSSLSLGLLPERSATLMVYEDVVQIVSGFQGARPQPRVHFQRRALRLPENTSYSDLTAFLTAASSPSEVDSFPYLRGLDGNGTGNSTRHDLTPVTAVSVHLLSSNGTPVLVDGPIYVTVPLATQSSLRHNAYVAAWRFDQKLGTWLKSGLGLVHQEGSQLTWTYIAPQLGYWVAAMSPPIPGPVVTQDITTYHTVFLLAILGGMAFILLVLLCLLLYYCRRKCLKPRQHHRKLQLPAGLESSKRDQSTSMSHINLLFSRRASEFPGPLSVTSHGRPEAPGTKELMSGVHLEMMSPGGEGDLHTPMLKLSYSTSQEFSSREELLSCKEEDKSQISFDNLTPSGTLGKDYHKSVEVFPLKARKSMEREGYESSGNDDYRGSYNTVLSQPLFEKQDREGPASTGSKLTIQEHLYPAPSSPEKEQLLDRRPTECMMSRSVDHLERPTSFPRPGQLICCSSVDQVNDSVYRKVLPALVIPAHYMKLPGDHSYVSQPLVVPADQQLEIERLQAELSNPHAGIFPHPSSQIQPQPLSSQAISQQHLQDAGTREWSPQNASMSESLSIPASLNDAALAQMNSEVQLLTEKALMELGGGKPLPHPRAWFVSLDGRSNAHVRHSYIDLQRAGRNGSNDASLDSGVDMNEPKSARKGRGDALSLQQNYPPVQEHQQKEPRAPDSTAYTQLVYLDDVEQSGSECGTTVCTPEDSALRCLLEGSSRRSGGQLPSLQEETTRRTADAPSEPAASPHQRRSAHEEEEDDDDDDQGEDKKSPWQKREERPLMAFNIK
# UniProt P25116: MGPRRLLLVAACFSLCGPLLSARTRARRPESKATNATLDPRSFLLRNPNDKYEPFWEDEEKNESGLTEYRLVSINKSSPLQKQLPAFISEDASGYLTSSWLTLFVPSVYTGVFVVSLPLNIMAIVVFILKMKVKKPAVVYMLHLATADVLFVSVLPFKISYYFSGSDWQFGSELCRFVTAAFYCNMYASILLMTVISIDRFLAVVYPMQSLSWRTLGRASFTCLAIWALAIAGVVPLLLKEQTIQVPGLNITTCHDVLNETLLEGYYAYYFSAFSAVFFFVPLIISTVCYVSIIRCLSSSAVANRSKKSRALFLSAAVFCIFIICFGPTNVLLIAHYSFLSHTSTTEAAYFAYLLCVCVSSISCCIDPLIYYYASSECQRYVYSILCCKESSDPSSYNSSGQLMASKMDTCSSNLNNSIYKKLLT
# UniProt Q9H098: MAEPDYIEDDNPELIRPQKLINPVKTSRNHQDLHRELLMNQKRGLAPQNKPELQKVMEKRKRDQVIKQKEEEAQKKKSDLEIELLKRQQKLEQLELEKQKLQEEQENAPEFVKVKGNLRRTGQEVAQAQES
# UniProt Q8TBP5: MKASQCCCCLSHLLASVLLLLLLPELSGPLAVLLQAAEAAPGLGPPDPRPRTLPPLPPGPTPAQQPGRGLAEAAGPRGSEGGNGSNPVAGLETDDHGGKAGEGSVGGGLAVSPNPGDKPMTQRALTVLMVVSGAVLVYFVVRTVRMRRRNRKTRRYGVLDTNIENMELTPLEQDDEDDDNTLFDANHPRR
# UniProt Q8IV48: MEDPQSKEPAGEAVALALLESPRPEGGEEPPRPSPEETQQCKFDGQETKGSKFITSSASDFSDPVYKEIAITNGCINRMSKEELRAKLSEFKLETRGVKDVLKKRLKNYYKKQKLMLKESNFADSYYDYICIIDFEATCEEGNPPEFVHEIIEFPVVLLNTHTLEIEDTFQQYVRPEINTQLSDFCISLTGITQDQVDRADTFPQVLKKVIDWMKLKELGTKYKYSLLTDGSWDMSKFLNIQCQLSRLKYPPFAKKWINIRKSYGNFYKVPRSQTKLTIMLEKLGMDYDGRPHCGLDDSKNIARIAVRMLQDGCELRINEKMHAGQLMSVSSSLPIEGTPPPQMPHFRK
# UniProt P07992: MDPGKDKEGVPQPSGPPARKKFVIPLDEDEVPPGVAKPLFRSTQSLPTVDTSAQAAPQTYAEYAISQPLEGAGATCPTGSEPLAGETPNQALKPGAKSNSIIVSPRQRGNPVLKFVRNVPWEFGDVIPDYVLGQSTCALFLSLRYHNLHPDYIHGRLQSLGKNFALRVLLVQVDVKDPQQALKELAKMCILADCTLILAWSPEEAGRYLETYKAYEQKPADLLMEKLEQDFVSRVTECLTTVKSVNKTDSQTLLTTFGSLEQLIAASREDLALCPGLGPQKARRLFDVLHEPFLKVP
# UniProt Q9Y6I3: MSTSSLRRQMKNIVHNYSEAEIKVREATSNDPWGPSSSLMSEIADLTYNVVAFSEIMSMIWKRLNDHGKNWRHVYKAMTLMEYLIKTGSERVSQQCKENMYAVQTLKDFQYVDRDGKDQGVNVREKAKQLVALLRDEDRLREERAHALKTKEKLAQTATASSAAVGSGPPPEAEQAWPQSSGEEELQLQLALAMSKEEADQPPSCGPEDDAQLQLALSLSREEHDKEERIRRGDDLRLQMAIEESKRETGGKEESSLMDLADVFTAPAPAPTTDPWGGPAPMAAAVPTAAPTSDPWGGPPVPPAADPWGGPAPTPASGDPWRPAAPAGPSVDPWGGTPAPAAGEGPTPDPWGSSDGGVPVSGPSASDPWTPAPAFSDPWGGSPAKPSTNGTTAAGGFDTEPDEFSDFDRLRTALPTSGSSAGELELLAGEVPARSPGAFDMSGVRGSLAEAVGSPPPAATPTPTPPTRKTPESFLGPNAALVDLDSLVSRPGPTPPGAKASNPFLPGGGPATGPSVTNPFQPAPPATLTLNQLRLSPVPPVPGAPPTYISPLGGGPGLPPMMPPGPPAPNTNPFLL
# The other results are listed elsewhere or left out.
# Compound: CNC(=O)C1=CC=CC=C1NC2=NC(=NC=C2Cl)NC3=C(C=C(C=C3)N4CCOCC4)OC
# Experiment: log2 fold change, soluble protein after heating vs DMSO (PISA); higher = thermal stabilisation; K562 cells, 10 uM, 30 min; active = over 0.2 and 3.5 SD of the protein, either way, in both replicates (recomputed)
# Summary of the method: (§1)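 K562 cells at 2×10^6 cells/mL were treated for 30 min with 10 μM compound, and aliquots were heated for 3 min over 48°C-58°C before pooling. Extraction used PBS with 0.5% NP-40 at 4°C, and soluble protein was the supernatant after 21,000xg for 90 min, measured by TMTpro 16plex LC-MS/MS with channel sums equalised. Thermal stability values, relative to control samples and from duplicates, are log2 fold changes.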
row,Target,log2 fold change
1,FAM114A1 (UniProt Q8IWE2),inactive: 0.094
2,FAM178B (UniProt Q8IXR5),inactive: 0.05
3,FAM135A (UniProt Q9P2D6),inactive: 0.004
4,FAM204A (UniProt Q9H8W3),inactive: 0.16
5,F2RL3 (UniProt Q96RI0),inactive: -0.051
6,EZH2 isoform 2 (UniProt Q15910),inactive: 0.011
7,EVI5 isoform 2 (UniProt O60447),inactive: -0.111
8,FAM171A2 (UniProt A8MVW0),inactive: 0.011
9,FAM171A1 (UniProt Q5VUB5),inactive: -0.066
10,EXD2 (UniProt Q9NVH0),inactive: -0.006
11,ERF (UniProt P50548),inactive: 0.069
12,FADS2 (UniProt O95864),inactive: 0.242
13,EPB41L5 (UniProt Q9HCM4),inactive: -0.059

# Compound: CNC(=O)c1ccc(Nc2ncc(C(F)(F)F)c(NCc3nccnc3N(C)S(C)(=O)=O)n2)cc1 [defactinib]
# Experiment: as above
# Summary of the method: as §1
row,Target,log2 fold change
1,EPS15L1 (UniProt M0QY01),inactive: 0.144
2,FADS1 (UniProt F5GYH4),inactive: 0.06
3,FAM135A (UniProt Q9P2D6),inactive: -0.131
4,FAM204A (UniProt Q9H8W3),inactive: 0.281
5,EYA3 (UniProt Q99504),inactive: 0.079
6,F2RL3 (UniProt Q96RI0),inactive: 0.009
7,F2R (UniProt P25116),inactive: 0.117
8,EVI2B isoform 2 (UniProt P34910),inactive: -0.04
9,EZH2 isoform 2 (UniProt Q15910),inactive: -0.207
10,EVI5 isoform 2 (UniProt O60447),inactive: 0.014
11,FAM102B (UniProt Q5T8I3),inactive: -0.172
12,FAM171A1 (UniProt Q5VUB5),inactive: -0.063
13,FAM107B isoform 2 (UniProt Q9H098),inactive: 0.016
14,F13B (UniProt P05160),inactive: 0.081
15,FAM174A (UniProt Q8TBP5),inactive: -0.028
16,ERI1 (UniProt Q8IV48),inactive: 0.296

# Compound: CNc1nc(-c2ccc3c(N)n[nH]c3c2)cc(N2C[C@@H](C(=O)NC3CCCCC3)CC[C@H]2C)n1
# Experiment: as above
# Summary of the method: as §1
row,Target,log2 fold change
1,FAM114A1 (UniProt Q8IWE2),inactive: -0.002
2,EPG5 (UniProt Q9HCE0),inactive: -0.066
3,F2RL3 (UniProt Q96RI0),inactive: 0.005
4,EZH2 isoform 2 (UniProt Q15910),inactive: 0.217
5,ESF1 (UniProt Q9H501),inactive: -0.03
6,EVI5 isoform 2 (UniProt O60447),inactive: 0.103
7,EPS8L1 (UniProt Q8TE68),inactive: -0.111
8,ERCC1 isoform 3 (UniProt P07992),inactive: -0.028
9,FAM107B isoform 2 (UniProt Q9H098),inactive: 0.013
10,EPN1 isoform 3 (UniProt Q9Y6I3),inactive: 0.18
11,ERI1 (UniProt Q8IV48),inactive: 0.194

# Compound: COC(=O)[C@H](CCSC)NC(=O)C1=C(C=C(C=C1)NC[C@H](CS)N)C2=CC=CC=C2
# Experiment: as above
# Summary of the method: as §1
row,Target,log2 fold change
1,EPS15L1 (UniProt M0QY01),inactive: 0.048
2,FADS1 (UniProt F5GYH4),inactive: 0.123
3,FAM135A (UniProt Q9P2D6),inactive: 0.003
4,FAM204A (UniProt Q9H8W3),inactive: 0.203
5,EYA3 (UniProt Q99504),inactive: 0.106
6,F2RL3 (UniProt Q96RI0),inactive: 0.008
7,F2R (UniProt P25116),inactive: -0.319
8,EVI2B isoform 2 (UniProt P34910),inactive: -0.05
9,EZH2 isoform 2 (UniProt Q15910),inactive: -0.302
10,EVI5 isoform 2 (UniProt O60447),inactive: -0.016
11,FAM102B (UniProt Q5T8I3),inactive: 0.083
12,FAM171A1 (UniProt Q5VUB5),inactive: 0.015
13,FAM107B isoform 2 (UniProt Q9H098),inactive: 0.071
14,F13B (UniProt P05160),inactive: 0.275
15,FAM174A (UniProt Q8TBP5),inactive: -0.132
16,ERI1 (UniProt Q8IV48),inactive: -0.06
